Source: PubChem BioAssay AID1259308 (NCATS, 2017)
Screen: 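Candidate targets for better recombinant protein yield in mammalian cells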 (primary screen). Cells: human HEK293 embryonic kidney cells stably expressing firefly luciferase (HEK-CMV-Luc2-Hygro). Reagents: single siRNA against human genes, 0.8 pmol siRNA per well. Timing: 72 h. Measured: 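Luciferase light (ONE-Glo) measured on one replicate plate set and viability (CellTiter-Glo) on the other, scaled to a negative control siRNA, with robust z-scores and luciferase per cell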. Scale: total luciferase, z-score and total luciferase, % of control: higher = more reporter protein produced; luciferase per cell, z-score: higher = more reporter output per viable cell. Hit rule: 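Active when the median/MAD z-score for overall luciferase is greater than 3; a gene was taken forward for validation with new siRNAs if at least two of its three siRNAs passed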. Meaning of the calls: active = raised luciferase; inactive = no rise.
The deposit covers about 59,000 reagents; shown is a random part of them. Of all reagents, about 1,510 (2.6%) got an active call. 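Calls use total luciferase alone and ignore viability, so some active siRNAs may act by altering cell number.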 Reagents against one gene are numbered here. Not all columns of the deposit are shown.

gene | siRNA no. | total luciferase, z-score | total luciferase, % of control | luciferase per cell, z-score | outcome
CLOCK (GeneID 9575) | 1 | -1.67 | 48.7 | -1.83 | inactive
CLOCK (GeneID 9575) | 2 | -1.31 | 55.9 | -1.11 | inactive
CLOCK (GeneID 9575) | 3 | -0.715 | 67.7 | -0.57 | inactive
OR4D9 (GeneID 390199) | 1 | 1.39 | 110 | 1.99 | inactive
OR4D9 (GeneID 390199) | 2 | -0.102 | 79.9 | -0.0932 | inactive
OR4D9 (GeneID 390199) | 3 | 0.735 | 96.5 | -0.145 | inactive
DNAJB4 (GeneID 11080) | 1 | 0.573 | 93.3 | 0.577 | inactive
DNAJB4 (GeneID 11080) | 2 | -0.634 | 69.3 | 0.279 | inactive
DNAJB4 (GeneID 11080) | 3 | 4.6 | 173 | 2.79 | active
ARL3 (GeneID 403) | 1 | -0.0798 | 80.3 | -0.5 | inactive
ARL3 (GeneID 403) | 2 | -0.169 | 78.5 | -0.47 | inactive
ARL3 (GeneID 403) | 3 | -0.476 | 72.4 | -0.126 | inactive
DEFB130A (GeneID 245940) | 1 | -0.996 | 62.1 | 0.207 | inactive
DEFB130A (GeneID 245940) | 2 | -0.105 | 79.8 | -0.0855 | inactive
DEFB130A (GeneID 245940) | 3 | 0.691 | 95.6 | 0.961 | inactive
SCN9A (GeneID 6335) | 1 | -1.53 | 51.4 | -1.44 | inactive
SCN9A (GeneID 6335) | 2 | 0.694 | 95.7 | 0.0552 | inactive
SCN9A (GeneID 6335) | 3 | -0.087 | 80.2 | -0.551 | inactive
EGLN1 (GeneID 54583) | 1 | 0.676 | 95.3 | 0.885 | inactive
EGLN1 (GeneID 54583) | 2 | -0.741 | 67.2 | -0.658 | inactive
EGLN1 (GeneID 54583) | 3 | 0.463 | 91.1 | -0.108 | inactive
AGT (GeneID 183) | 1 | -0.0269 | 81.4 | 0.104 | inactive
AGT (GeneID 183) | 2 | 0.697 | 95.7 | -0.258 | inactive
AGT (GeneID 183) | 3 | -1.9 | 44 | -1.28 | inactive
HEXD (GeneID 284004) | 1 | 0.0343 | 82.6 | -0.274 | inactive
HEXD (GeneID 284004) | 2 | 0.896 | 99.7 | 1.11 | inactive
HEXD (GeneID 284004) | 3 | 0.173 | 85.3 | 0.0131 | inactive
SIRT5 (GeneID 23408) | 1 | 1.12 | 104 | 0.258 | inactive
SIRT5 (GeneID 23408) | 2 | -0.353 | 74.9 | -1.02 | inactive
SIRT5 (GeneID 23408) | 3 | -0.0983 | 79.9 | -0.172 | inactive
ADAMTS17 (GeneID 170691) | 1 | -0.308 | 75.8 | -0.259 | inactive
ADAMTS17 (GeneID 170691) | 2 | 0.493 | 91.7 | 0.0522 | inactive
ADAMTS17 (GeneID 170691) | 3 | -1.22 | 57.6 | -0.327 | inactive
ETFA (GeneID 2108) | 1 | 0.753 | 96.9 | 0.017 | inactive
ETFA (GeneID 2108) | 2 | -0.425 | 73.4 | -1.12 | inactive
ETFA (GeneID 2108) | 3 | -0.179 | 78.3 | -0.0692 | inactive
SERPINI1 (GeneID 5274) | 1 | 0.122 | 84.3 | 0.528 | inactive
SERPINI1 (GeneID 5274) | 2 | 0.145 | 84.8 | -0.485 | inactive
SERPINI1 (GeneID 5274) | 3 | 0.946 | 101 | 0.579 | inactive
